Experimental data reported in PubChem BioAssay AID248 (DTP/NCI, 2004).
The list does not hold the whole screen: it gathers some chemical classes. Other doses and runs of a compound may be missing. T/C is the treated group as % of the vehicle group. Some entries give survivors of the animals treated and no T/C: the source files T/C as zero there, which appears to mark a toxic dose or a test without result, not a measured value. Some survivor counts are full or nearly so, which does not show that the dose was tolerated: survival well below the control is almost never listed, so the zero probably covers shortened survival too. Counts of survivors are from the toxicity check (mostly the fifth day) where no day follows; animals may have died later. Schedule codes are those of the source, read here as Q, the interval in days (D) or hours (H), X, the number of doses. Some schedules carry Z or #; the key to these is not given. For survival time, this PubChem deposit counts one and a half times the control or more as active, and values a quarter to a half above the control carry no call in these data; other NCI protocols may use other cut-offs. Some entries were tested several times; the values are given in rising order. Some entries show no survivor count and are marked so; the dose need not have been tolerated. Some T/C values are followed by the survivors on the day toxicity was checked, most often the fifth; without a count or a note in brackets, all were alive then.

Test system: L1210 leukemia ip in BDF1 mice, survival T/C
Test: NCI In Vivo Anticancer Drug Screen. Data for tumor model L1210 Leukemia (intraperitoneal) in B6D2F1 (BDF1) mice
Details: T/C endpoint: mean survival time, higher T/C = longer survival
[1] = dose: 100.0 mg/kg/injection, schedule: Q01DX001 (ip), vehicle: Klucel (hydroxypropylcellulose) (HPC)
[2] = dose: 200.0 mg/kg/injection, schedule: Q01DX001 (ip), vehicle: Klucel (hydroxypropylcellulose) (HPC)
[3] = dose: 100.0 mg/kg/injection, schedule: Q04DX002 (ip), vehicle: saline with Tween-80
[4] = dose: 200.0 mg/kg/injection, schedule: Q04DX002 (ip), vehicle: saline with Tween-80
[5] = dose: 3.6 mg/kg/injection, schedule: Q01DX Z (ip), vehicle: saline
[6] = dose: 4.8 mg/kg/injection, schedule: Q01DX Z (ip), vehicle: saline
[7] = dose: 25.0 mg/kg/injection, schedule: Q01DX001 (ip), vehicle: saline
[8] = dose: 50.0 mg/kg/injection, schedule: Q01DX001 (ip), vehicle: saline

CCCc1cccc2nc(-c3ccccc3)oc12.O=C1c2cc([N+](=O)[O-])ccc2-c2c1cc([N+](=O)[O-])cc2[N+](=O)[O-]
T/C (dose: 6.25 mg/kg/injection, schedule: Q04DX002 (ip), vehicle: saline with Tween-80): 88 % of control [survivor count not shown]
T/C (dose: 12.5 mg/kg/injection, schedule: Q04DX002 (ip), vehicle: saline with Tween-80): 94 % of control [survivor count not shown]
T/C (dose: 25.0 mg/kg/injection, schedule: Q04DX002 (ip), vehicle: saline with Tween-80): 98 % of control [survivor count not shown]
T/C (dose: 100.0 mg/kg/injection, schedule: Q01DX001 (ip), vehicle: saline with Tween-80): 86 % of control [survivor count not shown]

CCOP(NN(C)C)OCC
T/C [1]: 96 % of control
T/C [2]: 107 % of control
T/C (dose: 400.0 mg/kg/injection, schedule: Q01DX001 (ip), vehicle: Klucel (hydroxypropylcellulose) (HPC)): 103 % of control

CCCOP(C)(=S)OCCC
T/C [3]: 99 % of control [survivor count not shown]
T/C [4]: 92 % of control [survivor count not shown]

CC(C)(C)C(=O)SCCCl
T/C (dose: 10.0 mg/kg/injection, schedule: Q01DX010 (ip), vehicle: saline): 90 % of control
T/C (dose: 30.0 mg/kg/injection, schedule: Q01DX010 (ip), vehicle: saline): 96 % of control
T/C (dose: 100.0 mg/kg/injection, schedule: Q01DX010 (ip), vehicle: saline): 86 % of control
T/C (dose: 300.0 mg/kg/injection, schedule: Q01DX010 (ip), vehicle: saline): 91 % of control
T/C (dose: 300.0 mg/kg/injection, schedule: Q01DX Z (ip), vehicle: saline): 87 % of control
survivor count (dose: 500.0 mg/kg/injection, schedule: Q01DX Z (ip), vehicle: saline): 3 of 6

CN(N)/C(N)=N/[N+](=O)[O-]
T/C (dose: 50.0 mg/kg/injection, schedule: Q01DX001 (ip), vehicle: Klucel (hydroxypropylcellulose) (HPC)): 98 % of control
T/C [1]: 114 % of control
T/C [2]: 96 % of control

[N-]=[N+]=NC1=CC(=O)C(N=[N+]=[N-])=CC1=O
T/C (dose: 5.0 mg/kg/injection, schedule: Q01DX001 (ip), vehicle: saline): 100 % of control
T/C (dose: 10.0 mg/kg/injection, schedule: Q01DX001 (ip), vehicle: saline): 97 % of control [4 of 6 alive]
survivor count (dose: 20.0 mg/kg/injection, schedule: Q01DX001 (ip), vehicle: saline): 0 of 6
survivor count (dose: 40.0 mg/kg/injection, schedule: Q01DX001 (ip), vehicle: saline): 0 of 6
survivor count (dose: 80.0 mg/kg/injection, schedule: Q01DX001 (ip), vehicle: saline): 0 of 6
survivor count (dose: 100.0 mg/kg/injection, schedule: Q01DX001 (ip), vehicle: saline): 0 of 4
survivor count (dose: 200.0 mg/kg/injection, schedule: Q01DX001 (ip), vehicle: saline): 0 of 4
survivor count (dose: 400.0 mg/kg/injection, schedule: Q01DX001 (ip), vehicle: saline): 0 of 4

CON(C)CCCl
T/C (dose: 100.0 mg/kg/injection, schedule: Q04DX003 (ip), vehicle: saline): 93 % of control
T/C (dose: 200.0 mg/kg/injection, schedule: Q04DX003 (ip), vehicle: saline): 93 % of control
T/C (dose: 400.0 mg/kg/injection, schedule: Q04DX003 (ip), vehicle: saline): 88 % of control [4 of 6 alive]

O=[N+]([O-])c1cc2c(c([N+](=O)[O-])c1)-c1c(cc([N+](=O)[O-])cc1[N+](=O)[O-])C2=NO
T/C (dose: 50.0 mg/kg/injection, schedule: Q04DX002 (ip), vehicle: saline with Tween-80): 92 % of control [survivor count not shown]
T/C [3]: 92 % of control [survivor count not shown]
T/C [4]: 92 % of control [survivor count not shown]

O=C(O)COc1cccc(CN(CCCl)CCCl)c1
T/C (dose: 0.8 mg/kg/injection, schedule: Q01DX010 (ip), vehicle: propolene glycol): 122 % of control
T/C (dose: 0.8 mg/kg/injection, schedule: Q01DX Z (ip), vehicle: saline): 109 and 116 % of control
T/C (dose: 0.9 mg/kg/injection, schedule: Q01DX Z (ip), vehicle: saline): 122 % of control
T/C (dose: 1.02 mg/kg/injection, schedule: Q01DX009 (ip), vehicle: saline): 105 and 120 % of control
T/C (dose: 1.2 mg/kg/injection, schedule: Q01DX011 (ip), vehicle: propolene glycol): 128 % of control
T/C (dose: 1.2 mg/kg/injection, schedule: Q01DX Z (ip), vehicle: saline): 107 and 113 % of control
T/C (dose: 1.56 mg/kg/injection, schedule: Q01DX009 (ip), vehicle: saline): 100, 120, 133 % of control
T/C (dose: 1.8 mg/kg/injection, schedule: Q01DX010 (ip), vehicle: propolene glycol): 127 % of control
T/C (dose: 1.8 mg/kg/injection, schedule: Q01DX Z (ip), vehicle: saline): 114, 125, 128 % of control
T/C (dose: 2.34 mg/kg/injection, schedule: Q01DX009 (ip), vehicle: saline): 103 and 125 % of control
T/C (dose: 2.7 mg/kg/injection, schedule: Q01DX011 (ip), vehicle: propolene glycol): 110 % of control
T/C (dose: 2.7 mg/kg/injection, schedule: Q01DX Z (ip), vehicle: saline): 107 [5 of 6 alive] and 125 % of control
T/C (dose: 2.8 mg/kg/injection, schedule: Q01DX001 (ip), vehicle: saline): 104 % of control
T/C (dose: 3.12 mg/kg/injection, schedule: Q01DX009 (ip), vehicle: saline): 119 % of control
T/C [5]: 106 % of control
survivor count [5]: 6 of 6
T/C (dose: 4.1 mg/kg/injection, schedule: Q01DX001 (ip), vehicle: saline): 117 % of control
T/C [6]: 95 % of control
survivor count [6]: 6 of 6
T/C (dose: 6.2 mg/kg/injection, schedule: Q01DX001 (ip), vehicle: saline): 125 and 128 % of control
survivor count (dose: 6.25 mg/kg/injection, schedule: Q01DX009 (ip), vehicle: saline): 4 of 6
survivor count (dose: 7.2 mg/kg/injection, schedule: Q01DX Z (ip), vehicle: saline): 3 of 6
T/C (dose: 9.3 mg/kg/injection, schedule: Q01DX001 (ip), vehicle: saline): 109 % of control
T/C (dose: 12.5 mg/kg/injection, schedule: Q01DX001 (ip), vehicle: saline, evaluated on day 30): 120 % of control [5 of 6 alive]
T/C (dose: 12.5 mg/kg/injection, schedule: Q01DX001 (ip), vehicle: saline, run until all animals had died): 114 % of control
survivor count (dose: 12.5 mg/kg/injection, schedule: Q01DX009 (ip), vehicle: saline): 0 of 6
T/C [7]: 120 % of control
survivor count [7]: 3 of 4
survivor count (dose: 25.0 mg/kg/injection, schedule: Q01DX009 (ip), vehicle: saline): 0 of 6
T/C [8]: 122 % of control [5 of 6 alive]
survivor count [8]: 0 of 4
survivor count (dose: 50.0 mg/kg/injection, schedule: Q01DX009 (ip), vehicle: saline): 0 of 6

O=[N+]([O-])c1cc([N+](=O)[O-])c(NCCO)c([N+](=O)[O-])c1
T/C (dose: 100.0 mg/kg/injection, schedule: Q04DX003 (ip), vehicle: acetone): 99 % of control [survivor count not shown]
T/C (dose: 200.0 mg/kg/injection, schedule: Q04DX003 (ip), vehicle: acetone): 99 % of control [survivor count not shown]
T/C (dose: 400.0 mg/kg/injection, schedule: Q04DX003 (ip), vehicle: acetone): 86 % of control [survivor count not shown]
